Results from PMC13229503, “Dissecting mechanisms of ligand binding and conformational changes in the glutamine-binding protein” (eLife, 2026).
Results are given in words; binding and its absence hold for the method and conditions named. Blank lines part the entries; values can stand above or below the binder they belong to.

Experiments:
Assay in all cases: SEC; Superdex 75 Increase 10/300 GL; protein refolded from 6 M guanidine hydrochloride by dialysis in PBS pH 7.4, 1 mM DTT; elution volume and peak shape compared before and after refolding; both purified
[1] = molecular target: wild-type glutamine-binding protein GlnBP (E. coli) (UniProt P0AEQ3)
[2] = molecular target: GlnBP(59C-130C) double-cysteine variant (E. coli) (UniProt P0AEQ3)
[3] = molecular target: GlnBP(111C-192C) double-cysteine variant (E. coli) (UniProt P0AEQ3)

binding [1]: no binding
B1: wild-type glutamine-binding protein GlnBP (protein, UniProt P0AEQ3 23-248)
chain: ADKKLVVATDTAFVPFEFKQGDKYVGFDVDLWAAIAKELKLDYELKPMDFSGIIPALQTKNVDLALAGITITDERKKAIDFSDGYYKSGLLVMVKANNNDVKSVKDLDGKVVAVKSGTGSVDYAKANIKTKDLRQFPNIDNAYMELGTNRADAVLHDTPNILYFIKTAGNGQFKAVGDSLEAQQYGIAFPKGSDELRDKVNGALKTLRENGTYNEIYKKWFGTEPK

binding [2]: no binding
B2: GlnBP(59C-130C) double-cysteine variant (protein, UniProt P0AEQ3 23-248)
chain: ADKKLVVATDTAFVPFEFKQGDKYVGFDVDLWAAIAKELKLDYELKPMDFSGIIPALQCKNVDLALAGITITDERKKAIDFSDGYYKSGLLVMVKANNNDVKSVKDLDGKVVAVKSGTGSVDYAKANIKCKDLRQFPNIDNAYMELGTNRADAVLHDTPNILYFIKTAGNGQFKAVGDSLEAQQYGIAFPKGSDELRDKVNGALKTLRENGTYNEIYKKWFGTEPK

binding [3]: no binding
B3: GlnBP(111C-192C) double-cysteine variant (protein, UniProt P0AEQ3 23-248)
chain: ADKKLVVATDTAFVPFEFKQGDKYVGFDVDLWAAIAKELKLDYELKPMDFSGIIPALQTKNVDLALAGITITDERKKAIDFSDGYYKSGLLVMVKANNNDVKSVKDLDGKCVAVKSGTGSVDYAKANIKTKDLRQFPNIDNAYMELGTNRADAVLHDTPNILYFIKTAGNGQFKAVGDSLEAQQYGIAFPKCSDELRDKVNGALKTLRENGTYNEIYKKWFGTEPK
